Source: publication PMC7928066
These are yes or no findings as the source states them, for the method shown. Binding seen in cells or lysates may run through a third protein. Some entries that bind do so weakly or less than the wild type.

Sequences of proteins named here, by UniProt entry; tags and fusion partners are left off.
UniProt P61586: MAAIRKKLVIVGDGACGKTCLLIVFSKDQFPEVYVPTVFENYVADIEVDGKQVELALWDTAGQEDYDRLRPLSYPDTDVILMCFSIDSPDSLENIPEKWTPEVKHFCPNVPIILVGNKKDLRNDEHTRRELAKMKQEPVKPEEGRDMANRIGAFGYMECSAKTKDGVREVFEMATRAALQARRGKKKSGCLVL

Target: T1, neuropeptide Y receptor Y5 (human (endogenous in SK-N-AS)) (UniProt Q15761)
T1 sequence: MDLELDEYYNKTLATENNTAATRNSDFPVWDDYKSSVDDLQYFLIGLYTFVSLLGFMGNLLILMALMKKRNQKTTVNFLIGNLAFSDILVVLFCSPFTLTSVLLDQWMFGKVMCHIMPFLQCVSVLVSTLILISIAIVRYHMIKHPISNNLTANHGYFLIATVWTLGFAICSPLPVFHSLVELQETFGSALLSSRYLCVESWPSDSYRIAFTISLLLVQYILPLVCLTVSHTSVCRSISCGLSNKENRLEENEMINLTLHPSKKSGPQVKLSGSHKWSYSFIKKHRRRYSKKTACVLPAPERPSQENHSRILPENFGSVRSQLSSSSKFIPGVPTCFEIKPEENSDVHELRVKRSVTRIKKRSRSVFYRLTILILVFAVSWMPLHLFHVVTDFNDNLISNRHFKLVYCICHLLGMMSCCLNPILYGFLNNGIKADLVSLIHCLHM
Test: proximity ligation; Duolink in situ PLA with anti-Y5R and anti-RhoA-GTP antibodies in fixed, permeabilized SK-N-AS cells; serum-free media 24 h, then 10^-8 M NPY for 5, 10 or 20 min, with or without 30-min pre-incubation with 10^-6 M Y5R antagonist

binding: binds
Substance: RhoA-GTP (from UniProt P61586 1-193)
